Laboratory results from article PMC6255920.
These are yes or no findings as the source states them, for the method shown. In cells and extracts the contact can be indirect. Some binding calls cover weakened binding; strength is not graded here. Where a sequence is shown, tags or fusion partners need not be part of it.

What was measured:
[1] = biological target: BCL10 WT (HA-BCL10 WT and Flag-BCL10 WT) (UniProt O95999); experiment: co-IP; Flag-IP from HEK293 cells transfected with Flag- and HA-tagged BCL10 constructs; Western blot
Flag-BCL10 R42E, O95999 = biological target: T1, Flag-BCL10 R42E, O95999; experiment: as above; conditions: remark: other sources report otherwise
T1 chain: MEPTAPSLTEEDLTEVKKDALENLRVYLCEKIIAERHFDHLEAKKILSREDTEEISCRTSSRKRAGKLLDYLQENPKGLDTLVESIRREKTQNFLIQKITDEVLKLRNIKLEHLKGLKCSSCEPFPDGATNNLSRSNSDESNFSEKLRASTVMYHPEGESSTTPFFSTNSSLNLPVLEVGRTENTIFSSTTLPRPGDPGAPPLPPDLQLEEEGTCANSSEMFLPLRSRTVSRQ

Row | Binder | binding [1] | binding (Flag-BCL10 R42E, O95999)
1 | BCL10 WT (HA-BCL10 WT and Flag-BCL10 WT) (protein, UniProt O95999 1-233) MEPTAPSLTEEDLTEVKKDALENLRVYLCEKIIAERHFDHLRAKKILSREDTEEISCRTSSRKRAGKLLDYLQENPKGLDTLVESIRREKTQNFLIQKITDEVLKLRNIKLEHLKGLKCSSCEPFPDGATNNLSRSNSDESNFSEKLRASTVMYHPEGESSTTPFFSTNSSLNLPVLEVGRTENTIFSSTTLPRPGDPGAPPLPPDLQLEEEGTCANSSEMFLPLRSRTVSRQ | binds | 
2 | BCL10 WT (HA-BCL10 WT and Flag-BCL10 WT), O95999 1-233 (protein) MEPTAPSLTEEDLTEVKKDALENLRVYLCEKIIAERHFDHLRAKKILSREDTEEISCRTSSRKRAGKLLDYLQENPKGLDTLVESIRREKTQNFLIQKITDEVLKLRNIKLEHLKGLKCSSCEPFPDGATNNLSRSNSDESNFSEKLRASTVMYHPEGESSTTPFFSTNSSLNLPVLEVGRTENTIFSSTTLPRPGDPGAPPLPPDLQLEEEGTCANSSEMFLPLRSRTVSRQ |  | no binding
